# Screening data

Data taken from PubChem BioAssay AID1159506, deposited by NCATS (2015).

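Genome-wide siRNA knockdown in TC32 Ewing sarcoma cells, comparing luciferase light from an NR0B1-promoter reporter with a CMV-promoter reporter 48 hours after transfection.
Each siRNA was applied at 20 nM.
A z-score of the log NR0B1-over-CMV signal, less the median of siRNAs with the same seed; more negative means a stronger specific loss of the NR0B1 reporter.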

This is part of the screen; most of the strongest results are not listed here.
Sequences are the guide (antisense) strand, without overhang.

| # | siRNA | gene | seed-corrected z-score |
|---|---|---|---|
| 1 | `UAGCGUGUCAAAGUUCCGG` | ARVCF | 0.9648 |
| 2 | `AACUGGUCCAUGUCACAGC` | LRP1 | 0.3955 |
| 3 | `AAAGUAGGCAUCAUUCUUG` | CA11 | 0.3027 |
| 4 | `UAGACUAUAAAUCACAGGG` | OR2F2 | -0.6267 |
| 5 | `AGACCUUCAACAGUGUCCG` | NDRG2 | -0.3543 |
| 6 | `AUCAAUUUAACCACUUUUG` | DEFB129 | 1.63 |
| 7 | `UUUCUCACAGGCAUUGCUG` | PDK2 | 0.5817 |
| 8 | `UUAGGAUUGACAUCCCAGA` | ST3GAL4 | 1.444 |
| 9 | `UCAUGUACAAGCGUGCCGU` | TGM3 | -0.2857 |
| 10 | `AAAGUUUAAGCUUCCAUGC` | SPATA41 | 0.8147 |
| 11 | `UUCUCUGCAGGCUACAGCU` | MRPS24 | -0.09189 |
| 12 | `UCACCUUCACUCAGGAUGC` | TEX264 | 0.138 |
| 13 | `UUUGAUACAGCGAAAGGCC` | YY1AP1 | 0.7125 |
| 14 | `UUUAUUACUCUAUGGAUGC` | ZNF444 | -0.2747 |
| 15 | `UAUUUGUAUACUUCUAAUC` | FLJ46284 | -0.383 |
| 16 | `UCCUGGAUUCCAGCUCUGC` | KRT40 | -0.1554 |
| 17 | `UGUUGUCAUACUUCUCAUG` | GAPDH | -1.237 |
| 18 | `UAGAGUUUGGAAGCGACUG` | HOXD8 | 0.8684 |
| 19 | `UUGAGUCACAGCAAUCGUG` | OLFM4 | 0.4792 |
| 20 | `UAUCCACAUAGUGCAGAGG` | RPSAP20 | -0.2655 |
| 21 | `UCAUGGACUUGGAAUUAUC` | NEUROD6 | -0.3094 |
| 22 | `AAUGAUCCCUUUGUACUGC` | SLC25A4 | 0.9048 |
| 23 | `UGGGUUGUGACUUCGUUCG` | SYNGAP1 | 0.04947 |
| 24 | `UAUUUAACUGCUCCCACUG` | SERPIND1 | 0.7044 |
| 25 | `AAACUUGAGGAAAUAGUCC` | TRIM47 | 0.2466 |
| 26 | `UUGCGCUUAAAUGUAUCCC` | SYTL2 | 0.2136 |
| 27 | `UUUCAUUGGAGAUCUGUAG` | DAXX | -0.571 |
| 28 | `UUCAUGAAUAGCACAGUUG` | TAS2R38 | 1.858 |
| 29 | `UCAUAGUCCAGGAUCACGC` | EPHB2 | -0.4645 |
| 30 | `UUAGGUUUGACUGUCCGUC` | KLHL18 | 0.3387 |
| 31 | `AACAAGUCAAAUAAUAGCC` | CCL13 | -0.1064 |
| 32 | `UACUUGUUUAACCUGCCUG` | RPS15AP9 | 0.2739 |
| 33 | `UGGGUUAUGGGUCCCAUGC` | SNX20 | -0.7994 |
| 34 | `UAUUUUGCUCAGAAUCUUC` | TNFAIP8L3 | -0.3061 |
| 35 | `UUUGCGACACCACUCAAAG` | FBXO2 | 0.4907 |
| 36 | `UUUUCGGUUAUUCUCUUCC` | ARGLU1 | 0.7252 |
| 37 | `UGGUUUAGCAGUAAACCUG` | KIF2A | -0.2119 |
| 38 | `AUCAGAUAUGGUAAUGACC` | MNDA | 0.3962 |
| 39 | `UUCCGUUUUGAUCUUGUUC` | TUBGCP5 | 0.2312 |
| 40 | `AUAAACAUCAGUAAAGAAG` | TRAPPC2 | -0.8751 |
| 41 | `UUCAGAAUAAUGGUAAGUC` | SELL | 0.05172 |
| 42 | `UGAAAGAUUAAGAUCCAUC` | HHLA2 | 0.6277 |
| 43 | `UCAGAUAAUAAGACGGGUC` | PPIL2 | 0.9087 |
| 44 | `AAUGCAUCCACUGCUAUGC` | FAM126A | 0.6411 |
| 45 | `UCCUUGUACAGUUCUGCCC` | NOL6 | 0.9087 |
| 46 | `AUUCAUCCCAUGAAAGUUG` | CD33 | 1.058 |
| 47 | `UCUUGUCUCUCUUGCGCUC` | BAIAP2L2 | -0.2539 |
| 48 | `UCUGUGAAGAUGAAGGACU` | TBX10 | 0.06159 |
| 49 | `UUAUCGUCAAGUUGAGCCG` | SNX13 | 0.9027 |
| 50 | `UUUCACAUAUGGAAGAACU` | FAM220BP | -0.03893 |
| 51 | `AAAGUUGACAGCUUGCAGG` | PRKACA | 0.1724 |
| 52 | `UCAGGUAUCGCAUUGCAGG` | WBSCR27 | 1.224 |
| 53 | `UCCUAUGUCAAGAAGGUCG` | ROBO2 | -0.5397 |
| 54 | `UCAAUGAAGAGUUUUAGGU` | ANAPC13 | 0.07229 |
| 55 | `UUUCCUGUCAAGAUCGCCC` | PPARG | 0.8905 |
| 56 | `UGAGGACCCAGUACCCAUG` | BTNL8 | -0.4445 |

The last 4 entries again:

siRNA	gene	seed-corrected z-score
UCCUAUGUCAAGAAGGUCG	ROBO2	-0.5397
UCAAUGAAGAGUUUUAGGU	ANAPC13	0.07229
UUUCCUGUCAAGAUCGCCC	PPARG	0.8905
UGAGGACCCAGUACCCAUG	BTNL8	-0.4445